Results: PMC10640548
No constants are given. Whether binding was seen depends on the method and setting. Binding seen in cells or lysates may run through a third protein. Some results given as binding are weak or reduced against the parent protein; the word gives no strength.

Amino acid sequences for entries named in this document (tags omitted).
UniProt Q00987: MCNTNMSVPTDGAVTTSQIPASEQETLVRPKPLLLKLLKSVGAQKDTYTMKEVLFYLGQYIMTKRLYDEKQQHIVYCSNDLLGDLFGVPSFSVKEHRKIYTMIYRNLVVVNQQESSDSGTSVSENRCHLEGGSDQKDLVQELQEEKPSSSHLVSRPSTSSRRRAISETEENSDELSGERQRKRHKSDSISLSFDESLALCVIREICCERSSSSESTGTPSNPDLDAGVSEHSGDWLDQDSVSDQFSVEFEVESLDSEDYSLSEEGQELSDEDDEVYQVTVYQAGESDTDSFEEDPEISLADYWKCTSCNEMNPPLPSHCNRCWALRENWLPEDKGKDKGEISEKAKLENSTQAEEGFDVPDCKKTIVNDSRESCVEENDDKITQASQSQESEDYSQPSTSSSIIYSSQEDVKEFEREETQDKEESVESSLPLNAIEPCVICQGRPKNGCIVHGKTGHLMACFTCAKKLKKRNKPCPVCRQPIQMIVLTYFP

Columns and labels:
[1] = biological target: PPARγ protein (UniProt P37231); experiment: co-IP; HEK293T cells; TNE buffer; FLAG-tagged protein precipitated on anti-FLAG M2 Affinity Gel and eluted with 200 μg/mL FLAG peptide; Western blot
[2] = biological target: T1, PPARγ protein, P37231; experiment: as above; conditions: remark: other sources report otherwise
T1 chain: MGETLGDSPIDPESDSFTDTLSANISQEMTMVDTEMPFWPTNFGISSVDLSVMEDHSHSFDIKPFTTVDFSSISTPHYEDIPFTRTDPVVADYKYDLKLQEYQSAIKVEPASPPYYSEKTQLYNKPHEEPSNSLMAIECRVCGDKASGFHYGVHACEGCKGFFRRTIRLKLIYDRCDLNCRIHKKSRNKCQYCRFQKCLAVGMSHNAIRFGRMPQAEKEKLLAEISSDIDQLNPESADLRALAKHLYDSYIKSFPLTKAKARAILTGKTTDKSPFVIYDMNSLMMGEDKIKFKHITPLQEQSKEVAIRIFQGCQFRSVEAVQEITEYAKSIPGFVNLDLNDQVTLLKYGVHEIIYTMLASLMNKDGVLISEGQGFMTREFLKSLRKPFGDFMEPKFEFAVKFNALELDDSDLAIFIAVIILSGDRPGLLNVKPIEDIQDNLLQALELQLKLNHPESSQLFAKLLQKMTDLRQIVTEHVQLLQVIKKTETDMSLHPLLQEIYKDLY

MDM2 (from UniProt Q00987 1-491) (enzyme)
binding [1]: binds

B1: STUB1, Q9UNE7 1-303 (enzyme)
chain: MKGKEEKEGGARLGAGGGSPEKSPSAQELKEQGNRLFVGRKYPEAAACYGRAITRNPLVAVYYTNRALCYLKMQQHEQALADCRRALELDGQSVKAHFFLGQCQLEMESYDEAIANLQRAYSLAKEQRLNFGDDIPSALRIAKKKRWNSIEERRIHQESELHSYLSRLIAAERERELEECQRNHEGDEDDSHVRAQQACIEAKHDKYMADMDELFSQVDEKRKKRDIPDYLCGKISFELMREPCITPSGITYDRKDIEEHLQRVGHFDPVTRSPLTQEQLIPNLAMKEVIDAFISENGWVEDY
binding [2]: no binding
